PubChem BioAssay AID248 (DTP/NCI, 2004)
The list shows only some results of the screen, not a fair sample: it is rich in T/C values a quarter to a half above the control, in often repeated tests (any T/C) and in doses without a T/C. Other doses and runs of a compound stand elsewhere. T/C gives the treated animals as a percentage of the vehicle group. Some entries give survivors of the animals treated and no T/C: the source holds a T/C of zero for them, seemingly a mark for toxic or unscored doses. Some survivor counts are full or nearly so, which does not show that the dose was tolerated: the source hardly ever lists a survival T/C far under the control, and the zero likely stands for such cases as well. Survivors were counted at the toxicity check, usually on the fifth day, unless a day is given; later deaths do not show. Schedules are NCI's codes, taken here to give the interval after Q, in days (D) or hours (H), and the number of doses after X. Some schedules carry Z or #; the key to these is not given. Where survival is the endpoint, the PubChem record calls one and a half times the control and up active, and a quarter to a half above the control has no call in these data; cut-offs in other NCI protocols can differ. Some entries hold several experiments; the results are listed from low to high. Some T/C values are followed by the survivors on the day toxicity was checked, most often the fifth; without a count, all were alive then.

System: L1210 leukemia ip in BDF1 mice, survival T/C
Test: NCI In Vivo Anticancer Drug Screen. Data for tumor model L1210 Leukemia (intraperitoneal) in B6D2F1 (BDF1) mice
Conditions: T/C endpoint: mean survival time, higher T/C = longer survival
[1] = dose: 400.0 mg/kg/injection, schedule: Q01DX001 (ip), vehicle: carboxymethylcellulose (CMC)
[2] = dose: 400.0 mg/kg/injection, schedule: Q01DX001 (ip), vehicle: Klucel (hydroxypropylcellulose) (HPC)
[3] = dose: 400.0 mg/kg/injection, schedule: Q01DX009 (ip), vehicle: saline with Tween-80

Structure (SMILES): CCCCN(C)N=Nc1c(C(N)=O)n[nH]c1C
- T/C (dose: 16.0 mg/kg/injection, schedule: Q03HX024 (ip), vehicle: Klucel (hydroxypropylcellulose) (HPC)): 131 % of control
- T/C (dose: 20.0 mg/kg/injection, schedule: Q01DX009 (ip), vehicle: Klucel (hydroxypropylcellulose) (HPC)): 134 % of control
- T/C (dose: 30.0 mg/kg/injection, schedule: Q01DX009 (ip), vehicle: Klucel (hydroxypropylcellulose) (HPC)): 142 % of control
- T/C (dose: 32.0 mg/kg/injection, schedule: Q01DX009 (ip), vehicle: Klucel (hydroxypropylcellulose) (HPC)): 134 % of control
- T/C (dose: 32.0 mg/kg/injection, schedule: Q03HX016 (ip), vehicle: Klucel (hydroxypropylcellulose) (HPC)): 148 % of control
- T/C (dose: 64.0 mg/kg/injection, schedule: Q01DX009 (ip), vehicle: Klucel (hydroxypropylcellulose) (HPC)): 128 % of control
- T/C (dose: 128.0 mg/kg/injection, schedule: Q04DX003 (ip), vehicle: Klucel (hydroxypropylcellulose) (HPC)): 144 % of control
- survivor count (dose: 256.0 mg/kg/injection, schedule: Q01DX001 (ip), vehicle: Klucel (hydroxypropylcellulose) (HPC)): 6 of 10
- T/C (dose: 256.0 mg/kg/injection, schedule: Q04DX003 (ip), vehicle: Klucel (hydroxypropylcellulose) (HPC)): 144 % of control [8 of 10 alive]
- T/C (dose: 256.0 mg/kg/injection, schedule: Q08DX002 (ip), vehicle: Klucel (hydroxypropylcellulose) (HPC)): 144 % of control [8 of 10 alive]
- survivor count (dose: 266.0 mg/kg/injection, schedule: Q01DX001 (ip), vehicle: carboxymethylcellulose (CMC)): 1 of 6
- survivor count [1]: 0 of 6
- survivor count (dose: 600.0 mg/kg/injection, schedule: Q01DX001 (ip), vehicle: carboxymethylcellulose (CMC)): 0 of 6

Structure (SMILES): Cc1ncc(C)c(=O)[nH]1
- survivor count (dose: 400.0 mg/kg/injection, schedule: Q04DX003 (ip), vehicle: saline): 0 of 6

Structure (SMILES): O=P(N(CCCl)CCCl)(N1CCCCC1)N1CCCCC1
- survivor count (dose: 400.0 mg/kg/injection, schedule: Q01DX Z (ip), vehicle: saline): 2 of 6

Structure (SMILES): Cc1nc(N=C(N)N)nc2ccc(Cl)cc12
- survivor count (dose: 150.0 mg/kg/injection, schedule: Q01DX001 (ip), vehicle: saline): 1 of 6
- survivor count (dose: 300.0 mg/kg/injection, schedule: Q01DX001 (ip), vehicle: saline): 0 of 6

Structure (SMILES): CCOP(=O)(OCC)SC=C(Cl)Cl
- survivor count (dose: 200.0 mg/kg/injection, schedule: Q04DX002 (ip), vehicle: saline with Tween-80): 2 of 3
- survivor count (dose: 400.0 mg/kg/injection, schedule: Q04DX002 (ip), vehicle: saline with Tween-80): 0 of 3

Structure (SMILES): Nc1cccc(CC(=O)c2ccccc2)n1
- survivor count (dose: 100.0 mg/kg/injection, schedule: Q01DX001 (ip), vehicle: saline): 3 of 6
- survivor count (dose: 400.0 mg/kg/injection, schedule: Q01DX001 (ip), vehicle: saline): 1 of 6

Structure (SMILES): CC[C@]12CN3CCc4c([nH]c5ccccc45)[C@@](C(=O)OC)(c4cc5c(cc4OC)N(C)[C@H]4[C@@](O)(C(=O)OC)[C@H](OC(C)=O)[C@]6(CC)C=CCN7CC[C@]54[C@@H]76)CC(C3)[C@H]1O2 (some centres not stated)
- survivor count (dose: 12.0 mg/kg/injection, schedule: Q01DX002 (ip), vehicle: saline): 4 of 6
- T/C (dose: 12.0 mg/kg/injection, schedule: Q01DX009 (ip), vehicle: saline): 133 % of control
- T/C (dose: 16.5 mg/kg/injection, schedule: Q04DX003 (ip), vehicle: saline): 127 % of control
- T/C (dose: 25.0 mg/kg/injection, schedule: Q04DX003 (ip), vehicle: saline with Tween-80): 131 % of control
- T/C (dose: 25.0 mg/kg/injection, schedule: Q04DX003 (ip), vehicle: saline): 145 % of control
- T/C (dose: 37.5 mg/kg/injection, schedule: Q04DX003 (ip), vehicle: saline with Tween-80): 148 % of control

Structure (SMILES): O=C(c1ccccc1)C1CCCC1
- survivor count (dose: 400.0 mg/kg/injection, schedule: Q04DX002 (ip), vehicle: Klucel (hydroxypropylcellulose) (HPC)): 3 of 3

Structure (SMILES): Cc1cc(C)c(C)c(NC(=O)NCCCl)c1C
- survivor count [2]: 3 of 6

Structure (SMILES): CCCCCCCCCCCC[n+]1ccc(C)cc1C
- survivor count (dose: 0.8 mg/kg/injection, schedule: Q04DX003 (ip), vehicle: saline): 1 of 6
- survivor count (dose: 0.9 mg/kg/injection, schedule: Q01DX009 (ip), vehicle: saline): 0 of 6
- survivor count (dose: 1.35 mg/kg/injection, schedule: Q01DX009 (ip), vehicle: saline): 1 of 6
- survivor count (dose: 1.6 mg/kg/injection, schedule: Q04DX003 (ip), vehicle: saline): 1 of 6
- survivor count (dose: 3.2 mg/kg/injection, schedule: Q04DX003 (ip), vehicle: saline): 3 of 6

Structure (SMILES): Cc1ccc(S(=O)(=O)N(CCC(=O)O)c2ccccc2)cc1
- survivor count [3]: 5 of 6

Structure (SMILES): CCN(CC)CC(O)c1ccnc2c(N)cc(OC)cc12 (configuration not stated)
- survivor count (dose: 300.0 mg/kg/injection, schedule: Q01DX001 (ip), vehicle: acetone): 0 of 6

Structure (SMILES): Nc1nc(SCc2ccccn2)c2[nH]cnc2n1
- T/C (dose: 25.0 mg/kg/injection, schedule: Q04DX003 (ip), vehicle: Klucel (hydroxypropylcellulose) (HPC)): 138 % of control
- T/C (dose: 50.0 mg/kg/injection, schedule: Q04DX003 (ip), vehicle: Klucel (hydroxypropylcellulose) (HPC)): 138 % of control
- T/C (dose: 100.0 mg/kg/injection, schedule: Q04DX003 (ip), vehicle: Klucel (hydroxypropylcellulose) (HPC)): 134 and 145 % of control
- T/C (dose: 150.0 mg/kg/injection, schedule: Q04DX003 (ip), vehicle: Klucel (hydroxypropylcellulose) (HPC)): 134 % of control
- T/C (dose: 200.0 mg/kg/injection, schedule: Q04DX003 (ip), vehicle: Klucel (hydroxypropylcellulose) (HPC)): 144 % of control
- T/C (dose: 600.0 mg/kg/injection, schedule: Q04DX003 (ip), vehicle: Klucel (hydroxypropylcellulose) (HPC)): 139 % of control

Structure (SMILES): CCNC(C)(C)C(SS)c1ccc(Br)cc1 (configuration not stated)
- survivor count (dose: 25.0 mg/kg/injection, schedule: Q01DX009 (ip), vehicle: water): 2 of 6
- survivor count (dose: 100.0 mg/kg/injection, schedule: Q01DX009 (ip), vehicle: water): 3 of 6

Structure (SMILES): O=C1c2ccccc2C(O)(O)C1(O)C1(O)C(=O)c2ccccc2C1(O)O (configuration not stated)
- survivor count [1]: 0 of 4

Structure (SMILES): CS(=O)(=O)CCS(=O)(=O)c1cccs1
- survivor count (dose: 200.0 mg/kg/injection, schedule: Q01DX009 (ip), vehicle: Klucel (hydroxypropylcellulose) (HPC)): 3 of 6

Structure (SMILES): C=C(C)C(=O)[O][Sn]([CH2]CCC)([CH2]CCC)[CH2]CCC
- survivor count (dose: 1.56 mg/kg/injection, schedule: Q01DX009 (ip), vehicle: saline): 2 of 3
- survivor count (dose: 3.12 mg/kg/injection, schedule: Q01DX009 (ip), vehicle: saline): 1 of 3
- survivor count (dose: 6.25 mg/kg/injection, schedule: Q01DX009 (ip), vehicle: saline): 0 of 3
- survivor count (dose: 12.5 mg/kg/injection, schedule: Q01DX009 (ip), vehicle: saline): 1 of 3
- survivor count (dose: 25.0 mg/kg/injection, schedule: Q01DX009 (ip), vehicle: saline): 0 of 3
- survivor count (dose: 50.0 mg/kg/injection, schedule: Q01DX009 (ip), vehicle: saline): 0 of 3
- survivor count (dose: 100.0 mg/kg/injection, schedule: Q01DX009 (ip), vehicle: saline): 0 of 3

Structure (SMILES): Cc1ccc2nc(/C=C/c3ccc(N(C)C)cc3)cc(C)c2c1
- survivor count (dose: 50.0 mg/kg/injection, schedule: Q01DX Z (ip), vehicle: carboxymethylcellulose (CMC)): 0 of 6

Structure (SMILES): CC(=O)CCNC1(c2ccccc2)CCCCC1
- survivor count [2]: 0 of 6

Structure (SMILES): CCCCN(CCCC)c1ccc(C(=O)O)cc1
- survivor count [3]: 5 of 6
- survivor count (dose: 400.0 mg/kg/injection, schedule: Q04DX003 (ip), vehicle: saline with Tween-80): 2 of 6

Structure (SMILES): CCCP(=S)(CCC)CCC
- survivor count (dose: 400.0 mg/kg/injection, schedule: Q01DX001 (ip), vehicle: saline with Tween-80): 2 of 6

Structure (SMILES): COc1ccccc1CCN
- survivor count (dose: 100.0 mg/kg/injection, schedule: Q04DX002 (ip), vehicle: saline): 3 of 3
- survivor count (dose: 400.0 mg/kg/injection, schedule: Q04DX002 (ip), vehicle: saline): 1 of 3

Structure (SMILES): COc1ccc(O)c(C(=O)c2cccc(OC)c2C#N)c1
- survivor count (dose: 200.0 mg/kg/injection, schedule: Q04DX003 (ip), vehicle: carboxymethylcellulose (CMC)): 4 of 6
- survivor count (dose: 400.0 mg/kg/injection, schedule: Q04DX003 (ip), vehicle: carboxymethylcellulose (CMC)): 6 of 6
